Assay results from US20210246209A1 (SHANGHAI JUNSHI BIOSCIENCES, published 2021).
These are yes or no findings as the source states them, for the method shown. Some binding calls cover weakened binding; strength is not graded here.

T1: hBTLA (human BTLA protein coated on plates or coupled to a chip) (human) (UniProt Q7Z6A9)
T1 sequence (looked up): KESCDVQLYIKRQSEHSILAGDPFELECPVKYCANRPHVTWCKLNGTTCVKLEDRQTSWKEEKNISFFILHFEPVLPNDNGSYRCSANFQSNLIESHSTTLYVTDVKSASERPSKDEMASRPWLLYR


How the values were obtained:
[1] = biological target: cynomolgus monkey BTLA (cynomolgus monkey); experiment: sheet shows OD:450nm against Log:ng/mL (ELISA-type readout); the text describes a Fortebio/biosensor assay with BTLA coupled to a chip
[2] = biological target: cynomolgus monkey BTLA (cynomolgus monkey); experiment: biosensor (Fortebio / SPR as printed), cynomolgus BTLA coupled to chip, antibody 0.12 nM to 90 nM
[3] = biological target: human BTLA expressed on cells (human, UniProt Q7Z6A9 31-289); experiment: FACS on 293F cells expressing hBTLA
Method: The humanized anti-BTLA antibodies were determined for their binding ability to hBTLA expressed on cells using cell-based flow cytometry (FACS). […] Then the cells were mixed with 50 μL of antibody diluent at different concentrations (initial concentration: 10 μg/mL, 3-fold titration), and incubated at room temperature for 30 minutes. After being washed with an FACS buffer twice, the cells were added with 100 μL of goat anti-human IgG-PE antibody, incubated for 30 minutes away from light, and assayed by FACS after two washes with an FACS buffer. The washed cells were resuspended in 4° C. buffer containing propidium iodide (PI) and 0.02% sodium azide that prevents receptor internalization and analyzed by flow cytometry. Viable cells were gated on the basis of PI positive cells being excluded from the FSC/SSC gate and their geometric mean fluorescence intensity was measured. The data were analyzed using a sigmoidal dose-response model within Prism™ software.
The humanized antibodies hu17, hu18, and hu19 can effectively bind to hBTLA on 293 cells.

[4] = biological target: T1, hBTLA (human BTLA protein coated on plates or coupled to a chip) (human); experiment: ELISA, hBTLA coated at 0.5 µg/mL

Row | binding [1] | binding [2] | binding [3] | binding [4] | Binder
1 | binds | binds | – | – | humanized antibody hu17 (antibody, V domains shown, also called hull [sic]; humanized antibody 17) VH: QVQLVQSGAEVKKPGASVKLSCKASGYNFKHTYAHWVRQAPGQGLEWIGRIDPANGNTKYDPKFQGRATMTADTASNTAYLELSSLRSEDTAVYYCVADHYGSSLLDYWGQGTLVTVSS VL: DIVMTQTPLSLSVTPGQPASISCKSSQSLLDSDGKTYLNWFQQRPGQSPRRLIYLVSKLDSGVPDRFSGSGSGTDFTLKISRVEAEDVGVYYCWQGTYFPYTFGQGTKLEIK
2 | – | – | binds | binds | humanized antibody hu18 (antibody, IgG4, V domains shown, also called JS004; recombinant human anti-BTLA antibody) VH: QVQLVQSGAEVKKPGASVKLSCKASGYNFKHTYAHWVRQAPGQGLEWIGRIDPANGNTKYDPKFQGRATMTADTASNTAYLELSSLRSEDTAVYYCVADHYGSSLLDYWGQGTLVTVSS VL: DVVMTQTPLSLSVTPGQPASISCKSSQSLLDSDGKTYLNWFQQRPGQSPRRLIYLVSKLDSGVPDRFSGSGSGTDFTLKISRVEAEDVGVYYCWQGTYFPYTFGQGTKLEIK
